The list does not hold the whole screen: it is rich in T/C values a quarter to a half above the control, in often repeated tests (any T/C) and in doses without a T/C. Other doses and runs of a compound stand elsewhere. T/C: endpoint of the treated group in % of that of the vehicle group. Some entries give survivors of the animals treated and no T/C: the source holds a T/C of zero for them, seemingly a mark for toxic or unscored doses. Some doses without a T/C left all or most animals alive at the check, yet need not have been tolerated: the source hardly ever lists a survival T/C far under the control, and the zero likely stands for such cases as well. Counts of survivors are from the toxicity check (mostly the fifth day) where no day follows; animals may have died later. Schedules are NCI's codes, taken here to give the interval after Q, in days (D) or hours (H), and the number of doses after X. Some entries were tested several times; the values are given in rising order. Where survival is the endpoint, the PubChem record calls one and a half times the control and up active, and a quarter to a half above the control has no call in these data; cut-offs in other NCI protocols can differ. Marks such as (2×) stand for listed records that agree. Some T/C values are followed by the survivors on the day toxicity was checked, most often the fifth; where none is given, no animal had died by that day.
System: L1210 leukemia ip in BDF1 mice, survival T/C
Assay: NCI In Vivo Anticancer Drug Screen. Data for tumor model L1210 Leukemia (intraperitoneal) in B6D2F1 (BDF1) mice
Conditions: higher T/C = longer survival
[1] = T/C endpoint: mean survival time, dose: 160.0 mg/kg/injection, schedule: Q01DX009 (ip), vehicle: saline
[2] = T/C endpoint: mean survival time, dose: 320.0 mg/kg/injection, schedule: Q01DX009 (ip), vehicle: saline

With `CCCCCCCCCCCCCCCCCOc1ccc(I)cc1` the survivor count (T/C endpoint: mean survival time, dose: 400.0 mg/kg/injection, schedule: Q04DX003 (ip), vehicle: Klucel (hydroxypropylcellulose) (HPC)) was 6 of 6.
With `CCOC(=O)CNCc1cccc(Cl)c1` the survivor count (T/C endpoint: mean survival time, dose: 400.0 mg/kg/injection, schedule: Q01DX009 (ip), vehicle: saline) was 5 of 6.
In the case of `N/C(=N\O)c1nn(C2OC(CO)C(O)C2O)c2ncnc(N)c12` (centres undefined), the T/C (T/C endpoint: mean survival time, dose: 12.5 mg/kg/injection, schedule: Q01DX005 (ip), vehicle: saline) is reported as 143 % of control, the survivor count (T/C endpoint: mean survival time, dose: 50.0 mg/kg/injection, schedule: Q01DX005 (ip), vehicle: saline) is reported as 6 of 6 and the survivor count (T/C endpoint: mean survival time, dose: 100.0 mg/kg/injection, schedule: Q01DX005 (ip), vehicle: saline) is reported as 5 of 6. For the same compound, the survivor count (T/C endpoint: mean survival time, dose: 200.0 mg/kg/injection, schedule: Q01DX005 (ip), vehicle: saline) was 0 of 6.
`CCCCC#CC(=O)OCCC` was tested, and the survivor count (T/C endpoint: mean survival time, dose: 400.0 mg/kg/injection, schedule: Q04DX003 (ip), vehicle: saline with Tween-80) was 6 of 6.
With `O=c1n(CCCl)c(=O)n(CCCl)c(=O)n1CCCl` the survivor count (T/C endpoint: mean survival time, dose: 100.0 mg/kg/injection, schedule: Q04DX003 (ip), vehicle: saline with Tween-80) was 6 of 6.
In the case of `Cn1c(=O)c2c(nc(OC3CCC=CO3)n2C)n(C)c1=O` (centres undefined), the survivor count (T/C endpoint: mean survival time, dose: 400.0 mg/kg/injection, schedule: Q01DX001 (ip), vehicle: other) is reported as 1 of 4.
`C/C=C/c1cc(C)cc(C)c1OC(C)CC` (centres undefined) was tested, and the T/C (T/C endpoint: mean survival time, dose: 400.0 mg/kg/injection, schedule: Q04DX002 (ip), vehicle: saline with Tween-80) was 125 % of control.
With `CCCCCCCCCCCCC/C=C\C(=O)N(CCCCN(C)C)CCCCN(C)C` the survivor count (T/C endpoint: mean survival time, dose: 12.0 mg/kg/injection, schedule: Q01DX009 (ip), vehicle: carboxymethylcellulose (CMC)) was 1 of 6.
In the case of `CC(C)c1ccc(/C=N/NC(=O)c2ccc[n+](C)c2)cc1`, the survivor count (T/C endpoint: mean survival time, dose: 100.0 mg/kg/injection, schedule: Q01DX009 (ip), vehicle: saline) is reported as 0 of 3 and the survivor count (T/C endpoint: mean survival time, dose: 200.0 mg/kg/injection, schedule: Q01DX009 (ip), vehicle: saline) is reported as 0 of 3.
In the case of `CCOC(=O)Nc1cc(NC(C)CCCN(CC)CC)c2nc(-c3ccccc3)c(-c3ccccc3)nc2n1` (centres undefined), the survivor count (T/C endpoint: mean survival time, dose: 200.0 mg/kg/injection, schedule: Q01DX001 (ip), vehicle: saline) is reported as 3 of 6 and the survivor count (T/C endpoint: mean survival time, dose: 400.0 mg/kg/injection, schedule: Q01DX001 (ip), vehicle: saline) is reported as 0 of 6.
`COC(=O)C#CBr` was tested, and the survivor count (T/C endpoint: mean survival time, dose: 12.5 mg/kg/injection, schedule: Q01DX009 (ip), vehicle: other) was 0 of 6.
`Cc1cccc(N2CCN(c3ccncc3N)CC2C)c1` (centres undefined) was tested, and the survivor count (T/C endpoint: mean survival time, dose: 150.0 mg/kg/injection, schedule: Q04DX003 (ip), vehicle: saline with Tween-80) was 0 of 6.
For `C/C(=N/N=C(N)N)c1ccc(NC(=O)Nc2ccc(/C(C)=N/N=C(N)N)cc2)cc1`, the survivor count (T/C endpoint: mean survival time, dose: 8.0 mg/kg/injection, schedule: Q03HX008 (ip), vehicle: other) was 5 of 10, the survivor count (T/C endpoint: mean survival time, dose: 16.0 mg/kg/injection, schedule: Q01DX005 (iv), vehicle: other) was 0 of 10 and the survivor count (T/C endpoint: mean survival time, dose: 16.0 mg/kg/injection, schedule: Q03HX008 (ip), vehicle: other) was 6 of 10. The survivor count (T/C endpoint: mean survival time, dose: 16.0 mg/kg/injection, schedule: Q03HX016 (ip), vehicle: other) was 4 of 10, the T/C (T/C endpoint: mean survival time, dose: 20.0 mg/kg/injection, schedule: Q01DX009 (ip), vehicle: saline) was 124, 140, 145, 149 % of control and the survivor count (T/C endpoint: mean survival time, dose: 32.0 mg/kg/injection, schedule: Q01DX005 (iv), vehicle: other) was 0 of 10. For the same compound, the survivor count (T/C endpoint: mean survival time, dose: 32.0 mg/kg/injection, schedule: Q03HX008 (ip), vehicle: other) was 0 of 10, the survivor count (T/C endpoint: mean survival time, dose: 32.0 mg/kg/injection, schedule: Q03HX016 (ip), vehicle: other) was 0 of 10 and the T/C (T/C endpoint: mean survival time, dose: 40.0 mg/kg/injection, schedule: Q01DX009 (ip), vehicle: saline) was 142, 144, 161, 188 % of control. For the same compound, the survivor count (T/C endpoint: mean survival time, dose: 64.0 mg/kg/injection, schedule: Q01DX001 (iv), vehicle: other) was 0 of 10, the survivor count (T/C endpoint: mean survival time, dose: 64.0 mg/kg/injection, schedule: Q01DX005 (ip), vehicle: other) was 0 of 10 and the survivor count (T/C endpoint: mean survival time, dose: 64.0 mg/kg/injection, schedule: Q01DX005 (iv), vehicle: other) was 0 of 10. The survivor count (T/C endpoint: mean survival time, dose: 64.0 mg/kg/injection, schedule: Q01DX009 (ip), vehicle: other) was 1 of 10, the survivor count (T/C endpoint: mean survival time, dose: 64.0 mg/kg/injection, schedule: Q03HX008 (ip), vehicle: other) was 0 of 10 and the survivor count (T/C endpoint: mean survival time, dose: 64.0 mg/kg/injection, schedule: Q03HX016 (ip), vehicle: other) was 0 of 10. For the same compound, the T/C (T/C endpoint: mean survival time, dose: 80.0 mg/kg/injection, schedule: Q01DX009 (ip), vehicle: saline) was 178, 181, 217, 280 % of control [5 of 6 alive], the survivor count (T/C endpoint: mean survival time, dose: 128.0 mg/kg/injection, schedule: Q01DX001 (ip), vehicle: other) was 1 of 10 and the survivor count (T/C endpoint: mean survival time, dose: 128.0 mg/kg/injection, schedule: Q01DX001 (iv), vehicle: other) was 0 of 10. The survivor count (T/C endpoint: mean survival time, dose: 128.0 mg/kg/injection, schedule: Q01DX005 (ip), vehicle: other) was 0 of 10, the survivor count (T/C endpoint: mean survival time, dose: 128.0 mg/kg/injection, schedule: Q01DX005 (iv), vehicle: other) was 0 of 10 and the survivor count (T/C endpoint: mean survival time, dose: 128.0 mg/kg/injection, schedule: Q01DX009 (ip), vehicle: other) was 0 of 10. The survivor count (T/C endpoint: mean survival time, dose: 128.0 mg/kg/injection, schedule: Q03HX008 (ip), vehicle: other) was 0 of 10, the survivor count (T/C endpoint: mean survival time, dose: 128.0 mg/kg/injection, schedule: Q03HX016 (ip), vehicle: other) was 0 of 10 and the survivor count (T/C endpoint: mean survival time, dose: 128.0 mg/kg/injection, schedule: Q04DX003 (ip), vehicle: other) was 0 of 10. The survivor count (T/C endpoint: mean survival time, dose: 128.0 mg/kg/injection, schedule: Q08DX002 (ip), vehicle: other) was 1 of 10, the survivor count (T/C endpoint: mean survival time, dose: 147.0 mg/kg/injection, schedule: Q01DX009 (ip), vehicle: water) was 5 of 10 and the T/C [1] was 94 [5 of 6 alive] and 206 % of control [4 of 6 alive]. The survivor count [1] was 0 of 6 and 2 of 6, the survivor count (T/C endpoint: mean survival time, dose: 245.0 mg/kg/injection, schedule: Q01DX009 (ip), vehicle: water) was 6 of 10 and the survivor count (T/C endpoint: mean survival time, dose: 256.0 mg/kg/injection, schedule: Q01DX001 (ip), vehicle: other) was 0 of 10. The survivor count (T/C endpoint: mean survival time, dose: 256.0 mg/kg/injection, schedule: Q01DX001 (iv), vehicle: other) was 0 of 10, the survivor count (T/C endpoint: mean survival time, dose: 256.0 mg/kg/injection, schedule: Q01DX005 (ip), vehicle: other) was 0 of 10 and the survivor count (T/C endpoint: mean survival time, dose: 256.0 mg/kg/injection, schedule: Q01DX005 (iv), vehicle: other) was 0 of 10. For the same compound, the survivor count (T/C endpoint: mean survival time, dose: 256.0 mg/kg/injection, schedule: Q01DX009 (ip), vehicle: other) was 0 of 10, the survivor count (T/C endpoint: mean survival time, dose: 256.0 mg/kg/injection, schedule: Q04DX003 (ip), vehicle: other) was 0 of 10 and the survivor count (T/C endpoint: mean survival time, dose: 256.0 mg/kg/injection, schedule: Q08DX002 (ip), vehicle: other) was 0 of 10. The T/C [2] was 191 % of control [4 of 6 alive], the survivor count [2] was 2 of 6 and 3 of 6 and the survivor count (T/C endpoint: mean survival time, dose: 512.0 mg/kg/injection, schedule: Q01DX001 (ip), vehicle: other) was 0 of 10. The survivor count (T/C endpoint: mean survival time, dose: 512.0 mg/kg/injection, schedule: Q01DX001 (iv), vehicle: other) was 0 of 10, the survivor count (T/C endpoint: mean survival time, dose: 512.0 mg/kg/injection, schedule: Q04DX003 (ip), vehicle: other) was 1 of 10 and the survivor count (T/C endpoint: mean survival time, dose: 512.0 mg/kg/injection, schedule: Q08DX002 (ip), vehicle: other) was 2 of 10. For the same compound, the survivor count (T/C endpoint: mean survival time, dose: 1024.0 mg/kg/injection, schedule: Q01DX001 (ip), vehicle: other) was 1 of 10, the survivor count (T/C endpoint: mean survival time, dose: 1024.0 mg/kg/injection, schedule: Q01DX001 (iv), vehicle: other) was 0 of 10 and the survivor count (T/C endpoint: mean survival time, dose: 1024.0 mg/kg/injection, schedule: Q04DX003 (ip), vehicle: other) was 0 of 10. For the same compound, the survivor count (T/C endpoint: mean survival time, dose: 1024.0 mg/kg/injection, schedule: Q08DX002 (ip), vehicle: other) was 0 of 10, the survivor count (T/C endpoint: median survival time, dose: 30.0 mg/kg/injection, schedule: Q03HX024 (ip), vehicle: water) was 0 of 8 and the survivor count (T/C endpoint: median survival time, dose: 45.0 mg/kg/injection, schedule: Q03HX024 (ip), vehicle: water) was 0 of 8.
`CC(CNC(=O)CCOS(C)(=O)=O)CNC(=O)CCOS(C)(=O)=O` was tested, and the T/C (T/C endpoint: mean survival time, dose: 264.0 mg/kg/injection, schedule: Q04DX003 (ip), vehicle: other) was 131 % of control, the T/C (T/C endpoint: mean survival time, dose: 300.0 mg/kg/injection, schedule: Q01DX009 (ip), vehicle: other) was 133 % of control and the T/C (T/C endpoint: mean survival time, dose: 400.0 mg/kg/injection, schedule: Q04DX003 (ip), vehicle: other) was 130 % of control (2×). For the same compound, the T/C (T/C endpoint: mean survival time, dose: 400.0 mg/kg/injection, schedule: Q04DX003 (ip), vehicle: saline) was 131 % of control.

— PubChem BioAssay AID248 (DTP/NCI, 2004)
